Reference: PubChem BioAssay AID504764 (Drosophila RNAi Screening Center, 2011)
Aim: 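Genes whose knock-down alters Notch-dependent transcription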 (primary screen). System: Drosophila Kc167 cells. Knock-down reagent: long dsRNA against Drosophila genes. Timing: about 5 days (4 days dsRNA, then 24 h after transfection). Treatment: transfection of constitutively active membrane-tethered Notch lacking the extracellular domain, read 24 h later. Read-out: 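Firefly luciferase from an E(spl)m3 reporter with active Notch, plus control-promoter and uninduced reporter wells for normalisation; unnormalised counts, duplicate wells a and b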. Direction: induced reporter light, run 1, well a and induced reporter light, run 1, well b: higher = more light from the Notch target reporter with active Notch; control promoter light, run 1, well a and control promoter light, run 1, well b: higher = more light from the viral control promoter (cell number, transfection, viability); uninduced reporter light, run 1, well a: higher = more light from the Notch target reporter without active Notch. Rule for the call: 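Wells with low control signal or poorly matching duplicates excluded; duplicates averaged; per source plate, z beyond ±2 for induced/control log2 ratio or beyond ±1.8 for induced/uninduced marks a hit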. Meaning of the calls: active = modifier hit (raised or lowered Notch signal); inactive = not a hit.
The screen tested about 22,000 reagents; shown is a random part of those with a known target gene and a result. In the full data, 403 (1.9%) were called active. 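Unnormalised raw counts per well; ratio z-scores behind the hit calls and whether each hit raises or lowers signal are not deposited.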 Entries without a mark were called inactive. Names joined by + are all predicted targets of the reagent. Reagent sequences are not shown. Not given: the amount of reagent.

| gene | amplicon | induced reporter light, run 1, well a | induced reporter light, run 1, well b | control promoter light, run 1, well a | control promoter light, run 1, well b | uninduced reporter light, run 1, well a |
| --- | --- | --- | --- | --- | --- | --- |
| cola + swif | DRSC06826 | 2.07e5 | 1.94e5 | 2.91e5 | 2.38e5 | 16240 |
| Prosbeta5R1 | DRSC04581 | 2.40e5 | 2.51e5 | 1.97e5 | 1.79e5 | 17440 |
| Ugt35A1 | DRSC16892 | 1.24e5 | 1.36e5 | 1.01e5 | 87395 | 10055 |
| alphaSnap | DRSC11285 | 29060 | 24030 | 20545 | 23205 | 2455 |
| Eglp2 | DRSC04294 | 1.18e5 | 81565 | 62040 | 75735 | 6225 |
| CG10102 (retired record) | DRSC05963 | 58280 | 57040 | 82420 | 73070 | 5165 |
| CG11843 | DRSC14401 | 1.54e5 | 1.47e5 | 2.20e5 | 2.19e5 | 12850 |
| skl | DRSC10050 | 1.90e5 | 1.68e5 | 2.68e5 | 2.41e5 | 10650 |
| Pgant3 | DRSC05942 | 69650 (active) | 88030 | 55095 | 52265 | 5055 |
| stan | DRSC05234 | 14850 | 12200 | 16415 | 19020 | 8325 |
| stan | DRSC07697 | 1.78e5 | 1.53e5 | 2.30e5 | 2.06e5 | 15400 |
| CG3117 | DRSC00568 | 1.39e5 | 1.35e5 | 1.18e5 | 1.06e5 | 13330 |
| Megf8 | DRSC03058 | 1.89e5 | 2.19e5 | 2.15e5 | 1.68e5 | 17038 |
| Ipk1 | DRSC04235 | 2.20e5 | 2.42e5 | 1.65e5 | 1.63e5 | 12435 |
| Ipk1 | DRSC04236 | 49410 | 32180 | 26200 | 27965 | 2010 |
| Ipk1 | DRSC04237 | 34965 | 35755 | 32065 | 32990 | 2120 |
| Wbp2 | DRSC09821 | 73935 | 70390 | 40020 | 21015 | 10665 |
| CG2065 | DRSC06813 | 1.71e5 | 1.73e5 | 2.18e5 | 1.70e5 | 14655 |
| CG11842 | DRSC14400 | 3.06e5 | 3.38e5 | 3.72e5 | 3.57e5 | 22435 |
| CG15140 | DRSC02440 | 1.10e5 | 1.30e5 | 1.17e5 | 1.41e5 | 8555 |
| Wdr92 | DRSC10187 | 1.30e5 | 1.48e5 | 1.80e5 | 1.62e5 | 7925 |
| alpha-PheRS | DRSC18224 | 1.29e5 | 1.43e5 | 1.96e5 | 2.21e5 | 7565 |
| Gr59b | DRSC04179 | 2.28e5 | 2.07e5 | 1.85e5 | 1.56e5 | 14290 |
| CG17684 | DRSC07724 | 84955 | 77935 | 90635 | 71040 | 7635 |
| CG17684 | DRSC21166 | 74845 | 78305 | 83000 | 1.28e5 | 10850 |
| CG32845 | DRSC07867 | 1.63e5 | 1.85e5 | 2.22e5 | 1.73e5 | 13525 |
| CG9672 | DRSC20201 | 1.42e5 | 1.46e5 | 1.63e5 | 1.11e5 | 10270 |
| edl | DRSC06516 | 64935 | 75115 | 1.50e5 | 1.84e5 | 6390 |

Single entries from the entries so far:
Wdr92 [DRSC10187], uninduced reporter light, run 1, well a → 7925
Value for CG32845 [DRSC07867] under “uninduced reporter light, run 1, well a”: 13525
alpha-PheRS [DRSC18224], control promoter light, run 1, well b: 2.21e5
Under “control promoter light, run 1, well b”, alphaSnap [DRSC11285] reads 23205
Gr59b [DRSC04179], control promoter light, run 1, well b → 1.56e5

The list goes on:
| gene | amplicon | induced reporter light, run 1, well a | induced reporter light, run 1, well b | control promoter light, run 1, well a | control promoter light, run 1, well b | uninduced reporter light, run 1, well a |
| --- | --- | --- | --- | --- | --- | --- |
| CG1309 | DRSC08302 | 1.43e5 | 1.33e5 | 93065 | 47585 | 9225 |
| ubl | DRSC04998 | 2.11e5 (active) | 2.40e5 | 2.32e5 | 2.00e5 | 14215 |
| CG42750 | DRSC02458 | 70690 | 70720 | 63490 | 59745 | 7230 |
| CG42750 | DRSC03019 | 1.71e5 | 1.98e5 | 1.74e5 | 2.01e5 | 15840 |
| CG42750 | DRSC03024 | 1.32e5 | 1.48e5 | 1.49e5 | 1.41e5 | 14800 |
| CG31321 | DRSC13028 | 1.07e5 | 86665 | 1.44e5 | 1.38e5 | 9850 |
| CG8407 | DRSC07167 | 1.07e5 (active) | 1.22e5 | 1.67e5 | 2.31e5 | 11990 |
| RluA-2 | DRSC02939 | 1.92e5 | 2.15e5 | 1.84e5 | 1.51e5 | 12745 |
| CG10834 | DRSC03693 | 53520 | 40420 | 44280 | 47760 | 2935 |
| CG3704 | DRSC18174 | 88980 | 87380 | 1.22e5 | 1.13e5 | 6085 |
| CG3704 | DRSC18645 | 85750 | 96355 | 1.27e5 | 1.01e5 | 6465 |
| Cyp4g1 | DRSC18459 | 65370 | 69370 | 85115 | 93395 | 5710 |
| Osi1 | DRSC12271 | 80580 | 1.03e5 | 84240 | 83775 | 6110 |
| alpha-Est8 | DRSC12620 | 72200 | 81930 | 80420 | 54635 | 5340 |
| Mst84B | DRSC12579 | 1.18e5 | 1.31e5 | 1.12e5 | 79545 | 11120 |
| CG12133 | DRSC06108 | 2.54e5 | 2.30e5 | 2.56e5 | 2.60e5 | 19680 |
| Targ | DRSC06206 | 92470 | 1.06e5 | 1.12e5 | 92975 | 6755 |
| Or46a | DRSC07489 | 2.46e5 | 2.06e5 | 2.71e5 | 2.64e5 | 20325 |
| Or46a | DRSC07490 | 1.90e5 | 1.93e5 | 2.49e5 | 2.58e5 | 16445 |
| CG34331 | DRSC20679 | 75660 | 91955 | 90795 | 1.47e5 | 10875 |
| yem | DRSC14865 | 1.43e5 | 1.46e5 | 2.28e5 | 2.17e5 | 15610 |
| yem | DRSC17097 | 80415 | 86395 | 1.39e5 | 1.29e5 | 10230 |
| Rpn6 | DRSC07541 | 5860 | 5885 | 4365 | 4410 | 470 |
| mRpS18A | DRSC14369 | 73295 | 80385 | 67365 | 48455 | 6078 |
| CG11837 | DRSC14397 | 1.99e5 | 2.29e5 | 3.08e5 | 2.88e5 | 13620 |
| CG11655 | DRSC19413 | 46050 | 33720 | 50960 | 40595 | 6940 |
| CG14301 | DRSC14780 | 2.06e5 | 1.76e5 | 1.99e5 | 2.09e5 | 13755 |
| CG13590 | DRSC04226 | 1.60e5 (active) | 1.47e5 | 1.37e5 | 1.32e5 | 7860 |
| dop | DRSC10655 | 1.11e5 | 1.11e5 | 46090 | 72100 | 8020 |
| CG17549 | DRSC02625 | 1.88e5 | 1.93e5 | 2.02e5 | 2.13e5 | 16590 |
| Or49a | DRSC07493 | 1.01e5 | 1.07e5 | 1.25e5 | 1.14e5 | 8000 |
| CG5674 | DRSC02874 | 8910 | 9735 | 14195 | 12210 | 3065 |
| Ca-alpha1T | DRSC17842 | 1.24e5 | 1.57e5 | 2.30e5 | 2.49e5 | 11585 |
| Ca-alpha1T | DRSC18103 | 1.24e5 | 1.32e5 | 2.67e5 | 2.12e5 | 9435 |
| Ca-alpha1T | DRSC18356 | 80095 | 75235 | 1.10e5 | 1.18e5 | 6415 |
| Ca-alpha1T | DRSC18357 | 1.60e5 | 1.82e5 | 3.12e5 | 2.07e5 | 12000 |
